# In patent US20120271039:
# The chains behind the UniProt entries cited, without tags or fusion partners. Residues count along the entry.
# UniProt P00740, 47-461: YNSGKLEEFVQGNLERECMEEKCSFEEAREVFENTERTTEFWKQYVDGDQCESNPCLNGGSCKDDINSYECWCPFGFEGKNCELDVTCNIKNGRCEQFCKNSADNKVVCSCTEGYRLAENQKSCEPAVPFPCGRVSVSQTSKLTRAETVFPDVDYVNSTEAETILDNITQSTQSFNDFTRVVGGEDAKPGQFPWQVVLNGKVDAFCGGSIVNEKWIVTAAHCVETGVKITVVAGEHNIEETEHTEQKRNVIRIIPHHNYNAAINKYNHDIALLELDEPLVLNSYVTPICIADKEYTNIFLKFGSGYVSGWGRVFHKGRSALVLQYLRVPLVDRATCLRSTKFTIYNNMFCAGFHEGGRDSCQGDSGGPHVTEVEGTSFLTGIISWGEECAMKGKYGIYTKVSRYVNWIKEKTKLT
# For part of these data: Negatives hold for the conditions tested. For part of these data: The exact form of at least one protein or probe is not confirmed. For part of these data: Where a protein sequence is shown, tags need not be part of it.
# Legend:
# [1] = target: Coagulation Factor IX (plasma) (Homo sapiens) (UniProt P00740); assay: binding assay; settings: biotin-PEG(C18) spacer when immobilized on column; affinity chromatography; 40% of proteins in eluate; CaCl2, EDTA elution; purified native protein; single-stranded DNA; variant of Mapt-1.2-CS
# [2] = target: Coagulation Factor IX (recombinant) (Homo sapiens) (UniProt P00740); assay: SPR; settings: purified recombinant protein, single-stranded DNA
# [3] = tested on: Des-Gla Factor VII and poorly glycosylated forms (Homo sapiens); assay: binding assay; settings: not retained on affinity support, purified native protein, protein details: inactive forms present in plasma FVII concentrate, single-stranded DNA
# [4] = target: T1, Coagulation Factor VII (plasma) (Homo sapiens) (UniProt P08709); assay: binding assay; settings: biotin-PEG(C18) spacer when immobilized on column; affinity chromatography; 78% of proteins in eluate; text of example prints SEQ ID 37 for Mapt-2.2-CS; purified native protein; single-stranded DNA
# T1 sequence (looked up, limits assumed): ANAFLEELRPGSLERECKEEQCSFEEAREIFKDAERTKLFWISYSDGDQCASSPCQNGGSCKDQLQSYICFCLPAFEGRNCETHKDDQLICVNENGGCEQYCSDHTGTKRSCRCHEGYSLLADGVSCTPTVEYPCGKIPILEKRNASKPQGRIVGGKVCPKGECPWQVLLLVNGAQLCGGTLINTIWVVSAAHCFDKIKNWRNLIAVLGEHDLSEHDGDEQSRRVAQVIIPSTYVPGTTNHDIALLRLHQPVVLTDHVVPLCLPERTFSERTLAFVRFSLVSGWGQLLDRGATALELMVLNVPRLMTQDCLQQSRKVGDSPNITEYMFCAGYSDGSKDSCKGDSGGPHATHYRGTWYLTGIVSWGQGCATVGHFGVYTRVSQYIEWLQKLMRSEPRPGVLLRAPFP
# [5] = target: T1, Coagulation Factor VII (plasma) (Homo sapiens); assay: SPR; settings: 5' biotin, purified native protein, label: biotin, single-stranded DNA; for Kd: 5x PEG(C18) spacer
# [6] = target: Coagulation Factor IX, transgenic, poorly gamma-carboxylated (FIX-Tg) (Homo sapiens) (UniProt P00740); assay: SPR; settings: 5' biotin, PEG(C18) spacer for SPR; no spacer on column in examples 8-A and 9; incompletely gamma-carboxylated FIX; 50 mM Tris, 50 mM NaCl, 10 mM CaCl2, 4 mM MgCl2, pH 7.4; purified recombinant protein; label: biotin; single-stranded DNA
# [7] = target: Coagulation Factor IX, transgenic, Mapt-1 eluted active fraction (Homo sapiens) (UniProt P00740); assay: SPR; settings: 5' biotin, PEG(C18) spacer for SPR; no spacer on column in examples 8-A and 9; active fraction eluted from Mapt-1 column; 50 mM Tris, 10 mM CaCl2, pH 7.4; purified recombinant protein; label: biotin; single-stranded DNA
# [8] = target: Coagulation Factor IX (plasma) (Homo sapiens) (UniProt P00740); assay: SPR; settings: 5' biotin, PEG(C18) spacer for SPR; no spacer on column in examples 8-A and 9; also retained on Mapt-1 column, eluted by 10 mM EDTA; purified native protein; label: biotin; single-stranded DNA
# [9] = tested on: Coagulation Factor X (plasma) (Homo sapiens); assay: SPR; settings: 5' biotin, PEG(C18) spacer for SPR; no spacer on column in examples 8-A and 9; 50 mM Tris, 50 mM NaCl, 10 mM CaCl2, 4 mM MgCl2, pH 7.4; purified native protein; protein details: plasma-derived; label: biotin; single-stranded DNA
# [10] = FIX immobilized, Ca/Mg buffer, affinity group not assigned in text
Sequence,"binding result [2, 10]",also measured
CCACGACCTCGCACATGACTTGAAGTAAAACGCGAATTAC [Mapt-1.2-CSO],–,"binding result [1]: binds; binding result ([2]; biotin-PEG(C18) spacer when immobilized on column, FIX immobilized, significantly higher affinity than Mapt-1.2-CS, 50 mM Tris, 10 mM CaCl2, 4 mM MgCl2, pH 7.5, variant of Mapt-1.2-CS): binds"
CCGCACACCACGCGCATGACCCCGCGCACACGACTTGAAGTAGC [Mapt-2-CS],–,binding result ([3]; label: biotin): no binding
CCGCACGCTACGCGCATGAACCCGCGCACACGACTTGAAGTAGC [Mapt-2.2-CS],–,binding result [4]: binds; binding result ([3]; biotin-PEG(C18) spacer when immobilized on column): no binding
CGCACAAGACTTGAAGTTAAACGCGAATTACAAACCCAGCCCCC [core sequence SEQ ID 11],binds,–
CGCACAATGACTTGAAGTGAAACGCGAATAACAAACCAGGCCCC [core sequence SEQ ID 28],binds,–
CGCACACAGCTCGAAGTTAAACGCGAATTACAAACCAGGCCCC [core sequence SEQ ID 34],binds,–
CGCACACGACGTGAAGTTAACGCGAATCACAAACCAAACCCG [core sequence SEQ ID 33],binds,–
CGCACACGACTTGAAGTTAAACGCGAACTACAGACCAAGCCCA [core sequence SEQ ID 8],binds,–
CGCACACGACTTGAAGTTAAACGCGAATTACAAACCAGACCCC [core sequence SEQ ID 19],binds,–
CGCACACGACTTGAAGTTAAACGCGAATTACAGACCATGCCCA [core sequence SEQ ID 6],binds,–
CGCACACGACTTGAAGTTAAACGCGAATTACGGACCAATCCCA [core sequence SEQ ID 7],binds,–
CGCACACGACTTGAAGTTAACCGCGAATTACAAACCAAACCCA [core sequence SEQ ID 32],binds,–
CGCACACGACTTGAAGTTAACGCGAATTACATCCCAGACCCG [core sequence SEQ ID 16],binds,–
CGCACATGACTCGAAATAAACGCGAATTACAAACCCAGCCCCC [core sequence SEQ ID 13],binds,–
CGCACATGACTCGAAGTTAAACGCGAATTACAAACCAAGCCCA [core sequence SEQ ID 14],binds,–
CGCACATGACTTGAAGTAAAACGCGAATTACAGACCAAACCCG [core sequence SEQ ID 31],binds,–
CGCACATGACTTGAAGTTAAACGCGAACTACATACCAAGCCCA [core sequence SEQ ID 9],binds,–

Sequence,"binding result [2, 10]",also measured
CGCACATGACTTGAAGTTAAACGCGAATTACAAACCAAACCCA [core sequence SEQ ID 24],binds,–
CGCACATGACTTGAAGTTAAACGCGAATTACAAACCAAACCCG [core sequence SEQ ID 25],binds,–
CGCACATGACTTGAAGTTAAACGCGAATTACAAACCAGACCCA [core sequence SEQ ID 23],binds,–
CGCACATGACTTGAAGTTAAACGCGAATTACAAACCAGACCCC [core sequence SEQ ID 20],binds,–
CGCACATGACTTGAAGTTAAACGCGAATTACAAACCCAGCCCCC [core sequence SEQ ID 10],binds,–
CGCACATGACTTGAAGTTAAACGCGAATTACAAACCTAGCCCA [core sequence SEQ ID 15],binds,–
CGCACATGACTTGAAGTTAAACGCGAATTACAGACCAAACCCA [core sequence SEQ ID 29],binds,–
CGCACATGACTTGAAGTTAAACGCGAATTACAGACCAAACCCC [core sequence SEQ ID 30],binds,–
CGCACATGACTTGAAGTTAAACGCGAATTACGAACCAGACCCC [core sequence SEQ ID 21],binds,–
CGCACATGACTTGAAGTTAACGCGAATAACAACCCATCCCCCC [core sequence SEQ ID 27],binds,–
CGCACATGACTTGAAGTTAACGCGAATTACAAACCAACCCCC [core sequence SEQ ID 26],binds,–
CGCACATGACTTGAAGTTAACGCGAATTACAACCCAGACCC [core sequence SEQ ID 18],binds,–
CGCACATGACTTGAAGTTAACGCGAATTACAACCCAGACCCG [core sequence SEQ ID 17],binds,–
CGCACATGACTTGAAGTTAACGCGAATTACGAACCAGACCCA [core sequence SEQ ID 22],binds,–
GGGAGATAGCCACGACCTCCGCACACCACGCGCATGACCCCGCGCACACGACTTGAAGTAGCTCCAGGCTGTGCGAAAGC [Mapt-2],–,"Kd ([5]; buffer 1: 50 mM Tris, 50 mM NaCl, 10 mM CaCl2, 4 mM MgCl2, pH 7.5, ka 3.3e3 M-1s-1, kd 4.8e-4 s-1, binding resists 3 M NaCl, eluted by EDTA): 148 nM; Kd ([5]; buffer 5: 50 mM Tris, 10 mM CaCl2, pH 7.5, ka 4.7e4 M-1s-1, kd 6e-4 s-1): 13 nM"
GGGAGATAGCCACGACCTCGCACATGACTTGAAGTTAAACGCGAATTACAAACCCAGCCCCCTCCAGGCTGTGCGAAAGC [Mapt-1 (Mapt-1-WS)],–,"binding result ([5]; PEG(C18) spacer for SPR, no spacer on column in examples 8-A and 9, 50 mM Tris, 50 mM NaCl, 10 mM CaCl2, 4 mM MgCl2, pH 7.4): binds; binding result [6]: no binding; binding result [7]: binds; binding result [8]: binds; binding result ([2]; 5' biotin, PEG(C18) spacer for SPR, no spacer on column in examples 8-A and 9, aptamer immobilized, 50 mM Tris, 50 mM NaCl, 10 mM CaCl2, 4 mM MgCl2, pH 7.4, eluted by EDTA, label: biotin): binds; binding result [9]: binds"
TCGCACATGACATGAAGTTAAACGCGAATTACAAACCCAGCCCCC [core sequence SEQ ID 12],binds,–
